Measurements from patent US20160067208A1, “ADHESION PREVENTING AGENT” (FARNEX INCORPORATED, priority 2013, published 2016).

System: rat peritoneal section
Test: Test of bioadhesive property (TLC analysis)
Design: key: N: not substantially detected; S: detected only in a small amount
Settings: 20 mg lipid on rat peritoneal section, liquid crystal gel formed with PBS (+), stirring 400rpm 1 hour at 37° C.

Compound | TLC analysis (evaluation lipid detected in the aqueous solution)
CC(C)=CCC/C(C)=C/CC/C(C)=C/CCC(C)=CCCC(=O)OCC(O)CO (racemic) [Example 4, mono-O-(5,9,13,17-tetramethyloctadeca-4,8,12,16-tetraenoyl)glycerol] | S
CC(C)=CCC/C(C)=C/CCC(C)=CCCC(=O)OCC(O)CO (centres unmarked) [Example 1, mono-O-(5,9,13-trimethyltetradeca-4,8,12-trienoyl)glycerol] | S
CC(C)=CCC/C(C)=C/CC/C(C)=C/CCC(C)=CCCC(=O)OCC(O)C(O)CO (centres unmarked) [Example 5, mono-O-(5,9,13,17-tetramethyloctadeca-4,8,12,16-tetraenoyl)erythritol] | N
CC(C)CCCC(C)CCCC(C)CCCC(=O)OCC(O)CO (centres unmarked) [Example 8, mono-O-(5,9,13-trimethyltetradecanoyl)glycerol] | N
CC(=CCCC(=O)OCC(O)CO)CCCC(C)CCCC(C)C (centres unmarked) [Example 13, mono-O-(5,9,13-trimethyltetradec-4-enoyl)glycerol] | N
CC(=CCCC(=O)OCC(O)COCC(O)CO)CCCC(C)CCCC(C)CCCC(C)C (centres unmarked) [Example 14, mono-O-(5,9,13,17-tetramethyloctadec-4-enoyl)diglycerol] | N
CC(C)CCCC(C)CCCC(C)CCCC(C)CCOC1OC[C@@H](O)C(O)C1O (stereo partly drawn) [Example 15, 1-O-(3,7,11,15-tetramethylhexadecyl)-β-D-xylopyranoside] | N
CC(C)=CCC/C(C)=C/CC/C(C)=C/CCC(C)=CCOCC(O)C(O)CO (centres unmarked) [Example 45, mono-O-(3,7,11,15-tetramethylhexadeca-2,6,10,14-tetraenyl)erythritol] | S
CC(C)=CCC/C(C)=C/CC/C(C)=C/CCC(C)=CCCCOCC(CO)(CO)CO [Example 50, mono-O-(5,9,13,17-tetramethyloctadeca-4,8,12,16-tetraenyl)pentaerythritol] | N
CC(=CC(=O)OCC(O)CO)CCCC(C)CCCC(C)C (centres unmarked) [Example 54, mono-O-(3,7,11-trimethyldodec-2-enoyl)glycerol] | S
CC(=CC(=O)OCC(CO)(CO)CO)CCCC(C)CCCC(C)CCCC(C)C (centres unmarked) [Example 55, mono-O-(3,7,11,15-tetramethylhexadec-2-enoyl)pentaerythritol] | N
CC(=CCCCOCC(CO)(CO)CO)CCCC(C)CCCC(C)C (centres unmarked) [Example 56, mono-O-(5,9,13-trimethyltetradec-4-enyl)pentaerythritol] | N
CC(=CCOC[C@H](O)[C@H](O)CO)CCCC(C)CCCC(C)CCCC(C)C (some centres unmarked) [Example 57, mono-O-(3,7,11,15-tetramethylhexadec-2-enyl)erythritol] | N
CC(=CCCCOCC(O)CO)CCCC(C)CCCC(C)CCCC(C)C (centres unmarked) [Example 58, mono-O-(5,9,13,17-tetramethyloctadec-4-enyl)glycerol] | N
